Screen size: about 330,000 compounds; about 7,700 (2.3%) were called active. The shares of active, inactive and inconclusive entries below differ from those in the screen. Calls come from the whole dose curve; as a rule, active = well fitted inhibition curve with a large enough effect; inconclusive = small, poorly fitted or top-dose-only effect, or effect the other way; inactive = flat fitted curve, though single readings scatter. Potencies of inconclusive entries are doubtful fits and often do not repeat.
Assay: qHTS screen for small molecules that inhibit ELG1-dependent DNA repair in human embryonic kidney (HEK293T) cells expressing luciferase-tagged ELG1; note: nearly all actives have a fitted effect of over 55% in size
Settings: HEK293T ELG1-luciferase reporter, luminescence, 16 h, DNA damage induced by 5-fluorouridine; series mostly up to 46.1 µM
In short: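 Cells (2,000 per well) received 5-fluorouridine plus test compound or DMSO and were incubated 16 hr at 37 °C, 5% CO2. Luciferase activity was read by luminescence 30 min after ONE-Glo addition; signal suppression marked inhibition of damage-induced ELG1 function.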
Potency is the fitted concentration of half-maximal effect.

**Q.** For `COc1ccccc1/C=C/C=c1\sc2nc(=O)c(Cc3ccccc3)nn2c1=O`, which Potency is on record?
**A.** inactive

**Q.** Which Potency does the source give for `Cc1cc(C)n2nc(Nc3ccccc3)cc2n1` here?
**A.** inconclusive: 20.6 µM [activator, partial curve]

**Q.** Which Potency does the source give for `CCCCS(=O)(=O)N1CCCC(C(=O)Nc2ccc3c(c2)CCC3)C1` (stereo not drawn) here?
**A.** inconclusive: 16.4 µM [activator, partial curve, poor fit]

**Q.** For `Oc1[nH]c2ccccc2c1N=Nc1cccc(Cl)c1`, which Potency is on record?
**A.** inconclusive: 18.3 µM [activator, partial curve]

**Q.** Which Potency does the source give for `COc1cc([N+](=O)[O-])ccc1N=Nc1c(N)[nH]n(-c2ccccc2)c1=O` here?
**A.** inactive

**Q.** With `CCOc1ccc(NC(=S)NCc2ccc3[nH]c(C)cc3c2)cc1` as the compound, how does the Potency read?
**A.** inconclusive: 20.6 µM [inhibitor, single point]

**Q.** With `Cc1c(Cc2ccccc2)sc(NC(=O)C(C)(C)C)c1C(N)=O` as the compound, how does the Potency read?
**A.** inactive

**Q.** For `S=c1[nH]nc(-c2cc(-c3ccccc3)n[nH]2)n1/N=C/c1cccc(Cl)c1`, which Potency is on record?
**A.** inconclusive: 3.26 µM [activator, single point]

**Q.** Which Potency does the source give for `N/C(=N\OC(=O)c1cccc(F)c1)c1cccc([N+](=O)[O-])c1` here?
**A.** inconclusive: 16.4 µM [activator, partial curve]

**Q.** For `CC(C)c1ccc(S(=O)(=O)N2CCN(C(C)C(=O)NC3CCCC3)CC2)cc1` (stereo not drawn), which Potency is on record?
**A.** inactive

**Q.** With `CC(Sc1ncnc2ccccc12)C(=O)Nc1ccc2c(c1)OCCO2` (stereo not drawn) as the compound, how does the Potency read?
**A.** inconclusive: 16.4 µM [inhibitor, single point]

**Q.** Which Potency does the source give for `COC(=O)c1sccc1NC(=O)c1ccccc1[N+](=O)[O-]` here?
**A.** inactive

**Q.** With `Cc1ccc(Cn2c(=N)c(C(=O)NCc3ccco3)cc3c(=O)n4ccccc4nc32)cc1` as the compound, how does the Potency read?
**A.** inconclusive: 32.6 µM [inhibitor, single point]

**Q.** With `Cc1cccc(NC(=O)CN2CCN(CC(=O)Nc3ccc(-c4ccccc4)cc3)CC2)c1C` as the compound, how does the Potency read?
**A.** inconclusive: 16.4 µM [inhibitor, single point]

**Q.** For `O=[N+]([O-])c1ccc(S(=O)(=O)c2ccccc2)nc1`, which Potency is on record?
**A.** inactive

**Q.** With `CCn1nc(C)c(CN2CCCCC2C(=O)Nc2ccc(Oc3cccnc3)cc2)c1C` (stereo not drawn) as the compound, how does the Potency read?
**A.** inconclusive: 29.1 µM [inhibitor, single point]

**Q.** For `CNC(=S)NNC(=O)COc1ccc(C)c(C)c1`, which Potency is on record?
**A.** inconclusive: 20.6 µM [activator, single point]

**Q.** For `COc1ccc(NC(=O)CCC(=O)Nc2cc(OC)c(NC(=O)c3ccco3)cc2OC)c(OC)c1`, which Potency is on record?
**A.** inconclusive: 18.3 µM [inhibitor, partial curve]

**Q.** With `CCOc1c2ccc(C(=O)NCc3cc(C(F)(F)F)cc(C(F)(F)F)c3)cc2nn1CCOC` as the compound, how does the Potency read?
**A.** inactive

**Q.** For `CC(NC(=O)CN1CCOCC1)c1ccc(F)cc1` (stereo not drawn), which Potency is on record?
**A.** inconclusive: 4.11 µM [inhibitor, partial curve, poor fit]

**Q.** For `CC(NC(=O)C(=O)N1CCCCC1)C(c1cccs1)N1CCN(c2ccccc2)CC1` (stereo not drawn), which Potency is on record?
**A.** inactive

**Q.** Which Potency does the source give for `O=C(c1cccc(S(=O)(=O)N2CCc3ccccc32)c1)N1CCCC(C(F)(F)F)C1` (stereo not drawn) here?
**A.** inconclusive: 20.6 µM [inhibitor, single point]

**Q.** With `COc1cccc(Nc2ncnc3sccc23)c1` as the compound, how does the Potency read?
**A.** inconclusive: 9.2 µM [activator, partial curve]

**Q.** Which Potency does the source give for `Cc1ccc(NC(=O)c2nc[nH]c2C(=O)N[C@@H](CCCCNC(=O)OC(C)(C)C)C(=O)OC(C)(C)C)cc1` here?
**A.** inconclusive: 16.4 µM [inhibitor, single point]

**Q.** For `O=C(c1ccc(NS(=O)(=O)c2ccc(F)cc2)cc1)N1CCC1`, which Potency is on record?
**A.** inconclusive: 23.1 µM [activator, partial curve, poor fit]

**Q.** For `O=C1C2C3C=CC(CC3)C2C(=O)N1/N=C/c1c[nH]c2ccccc12` (stereo not drawn), which Potency is on record?
**A.** inconclusive: 18.3 µM [activator, partial curve]

**Q.** For `COc1ccc(C(=O)OCC(=O)Nc2ccc([N+](=O)[O-])cc2OC)c(O)c1`, which Potency is on record?
**A.** inactive

**Q.** For `CC(=O)Nc1nc(C)c(-c2csc(Nc3cccc([N+](=O)[O-])c3)n2)s1`, which Potency is on record?
**A.** active: 2.91 µM

**Q.** Which Potency does the source give for `N#Cc1ccsc1NC(=O)CCN1CCN(C(c2ccccc2)c2ccccc2)CC1` here?
**A.** inactive

**Q.** With `CCCn1c2ccccc2c2nnc(SCC(=O)Nc3c(C)n(C)n(-c4ccccc4)c3=O)nc21` as the compound, how does the Potency read?
**A.** inconclusive: 29.1 µM [inhibitor, single point]

**Q.** With `CCOc1ccc(N2CC(C(=O)NCCc3c[nH]c4ccc(OC)cc34)CC2=O)cc1` (stereo not drawn) as the compound, how does the Potency read?
**A.** inconclusive: 13 µM [inhibitor, partial curve]

**Q.** For `COc1cccc2cc(C(=O)NCc3ccco3)c(=O)oc12`, which Potency is on record?
**A.** inconclusive: 29.1 µM [activator, single point]

**Q.** For `CCCc1ccc2oc(C(=O)NCCc3nc(C(=O)OCC)cs3)c(C)c2c1`, which Potency is on record?
**A.** inconclusive: 2.91 µM [activator, partial curve, poor fit]

**Q.** Which Potency does the source give for `CCN(c1ccccc1)S(=O)(=O)c1ccc(OC)c(NC(=O)Cc2ccccc2OC)c1` here?
**A.** inactive

**Q.** With `COC(=O)C1=C(C)NC2=C(C(=O)c3ccccc32)C1c1ccc(-c2ccc(C(=O)O)cc2)o1` (stereo not drawn) as the compound, how does the Potency read?
**A.** active: 20.6 µM

**Q.** With `N#CCOc1nc(N2CCCCC2)nc(N2CCCCC2)n1` as the compound, how does the Potency read?
**A.** inconclusive: 29.1 µM [inhibitor, single point]

**Q.** With `O=C1C=C(c2cccc(Br)c2)C[C@@H](c2ccc3c(c2)OCO3)C1` as the compound, how does the Potency read?
**A.** inconclusive: 18.3 µM [inhibitor, single point]

**Q.** With `Nc1c(C(=O)Nc2ccccc2F)sc2nc(Cc3ccccc3)cc(C(F)(F)F)c12` as the compound, how does the Potency read?
**A.** inconclusive: 20.6 µM [activator, single point]

**Q.** With `Nc1nonc1-n1nnc(C(=O)N/N=C/c2ccc3c(c2)OCO3)c1-c1ccccc1` as the compound, how does the Potency read?
**A.** inactive

**Q.** Which Potency does the source give for `Cc1ccccc1Nc1nc(N)nc(COC(=O)c2cccn2C)n1` here?
**A.** inconclusive: 16.4 µM [activator, partial curve]

**Q.** For `CC(C)OCCCNc1ncnc2c1cnn2-c1ccccc1`, which Potency is on record?
**A.** inconclusive: 20.6 µM [activator, single point]

**Q.** For `COc1cc(C)ccc1N(CCCN1C(=O)c2cccc3cccc(c23)C1=O)C(=O)c1cccs1`, which Potency is on record?
**A.** active: 20.6 µM

**Q.** With `Nc1c(-c2nn[nH]n2)cnn1-c1cc(Cl)cc(Cl)c1` as the compound, how does the Potency read?
**A.** inconclusive: 20.6 µM [activator, single point]

— PubChem BioAssay AID504467 (National Center for Advancing Translational Sciences (NCATS), 2011)
